The list shows a part of the results.
Key:
Experiment in all cases: log2 fold change, soluble protein after heating vs DMSO (PISA); higher = thermal stabilisation; K562 lysate, 10 uM; active = over 0.2 and 3.5 SD of the protein, either way, in both replicates (recomputed)
[1] = compound: C1=CC=C(C=C1)[C@H](COC2=CC3=C(C=C2)NC(=O)N3)NC(=O)C4=CC=CN(C4=O)CC5=CC(=C(C=C5)F)F
How it was run: (§1)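 K562 pellets were dounce-homogenised in PBS pH 7.4 containing 1 mM MgCl2, and the crude extract, at 1 mg/mL protein, was exposed to 10 μM compound for 30 min. Aliquots were heated for 3 min across 48°C-58°C, pooled, brought to 0.5% NP-40 at 4°C and spun at 21,000xg for 90 min, with the supernatant taken as soluble protein. TMTpro 16plex LC-MS/MS with equalised channel sums quantified that protein. Values are log-two fold changes in thermal stability relative to solvent controls, taken from duplicates.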

The chains behind the UniProt entries cited, without tags or fusion partners. Where a name states a change or a piece, a line headed by the entry shows the natural chain unless it says otherwise.
UniProt Q96HC4: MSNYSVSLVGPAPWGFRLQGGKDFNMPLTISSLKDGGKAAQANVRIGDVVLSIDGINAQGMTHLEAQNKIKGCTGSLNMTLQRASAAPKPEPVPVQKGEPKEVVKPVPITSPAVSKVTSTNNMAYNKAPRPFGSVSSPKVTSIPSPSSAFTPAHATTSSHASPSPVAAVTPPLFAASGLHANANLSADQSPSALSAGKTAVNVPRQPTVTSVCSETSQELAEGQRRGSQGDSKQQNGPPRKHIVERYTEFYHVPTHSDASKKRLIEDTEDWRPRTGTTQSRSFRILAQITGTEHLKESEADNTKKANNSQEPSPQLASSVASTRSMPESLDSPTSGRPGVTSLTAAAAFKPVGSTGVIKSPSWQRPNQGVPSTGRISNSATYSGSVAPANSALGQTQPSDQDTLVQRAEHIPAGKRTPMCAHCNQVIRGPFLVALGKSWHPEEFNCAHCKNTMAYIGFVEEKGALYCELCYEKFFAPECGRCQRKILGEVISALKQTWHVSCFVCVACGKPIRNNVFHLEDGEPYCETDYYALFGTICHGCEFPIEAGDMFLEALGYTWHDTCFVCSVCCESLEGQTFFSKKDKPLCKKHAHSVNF
UniProt Q96KB5: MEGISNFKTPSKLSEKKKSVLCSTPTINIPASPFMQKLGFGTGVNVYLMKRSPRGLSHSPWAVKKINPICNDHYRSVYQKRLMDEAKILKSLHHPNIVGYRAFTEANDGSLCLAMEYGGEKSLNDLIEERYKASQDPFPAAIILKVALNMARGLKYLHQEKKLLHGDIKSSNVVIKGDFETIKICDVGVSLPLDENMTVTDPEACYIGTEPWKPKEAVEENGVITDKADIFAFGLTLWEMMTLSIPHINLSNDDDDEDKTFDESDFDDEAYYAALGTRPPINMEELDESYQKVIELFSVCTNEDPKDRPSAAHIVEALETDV
UniProt Q14690: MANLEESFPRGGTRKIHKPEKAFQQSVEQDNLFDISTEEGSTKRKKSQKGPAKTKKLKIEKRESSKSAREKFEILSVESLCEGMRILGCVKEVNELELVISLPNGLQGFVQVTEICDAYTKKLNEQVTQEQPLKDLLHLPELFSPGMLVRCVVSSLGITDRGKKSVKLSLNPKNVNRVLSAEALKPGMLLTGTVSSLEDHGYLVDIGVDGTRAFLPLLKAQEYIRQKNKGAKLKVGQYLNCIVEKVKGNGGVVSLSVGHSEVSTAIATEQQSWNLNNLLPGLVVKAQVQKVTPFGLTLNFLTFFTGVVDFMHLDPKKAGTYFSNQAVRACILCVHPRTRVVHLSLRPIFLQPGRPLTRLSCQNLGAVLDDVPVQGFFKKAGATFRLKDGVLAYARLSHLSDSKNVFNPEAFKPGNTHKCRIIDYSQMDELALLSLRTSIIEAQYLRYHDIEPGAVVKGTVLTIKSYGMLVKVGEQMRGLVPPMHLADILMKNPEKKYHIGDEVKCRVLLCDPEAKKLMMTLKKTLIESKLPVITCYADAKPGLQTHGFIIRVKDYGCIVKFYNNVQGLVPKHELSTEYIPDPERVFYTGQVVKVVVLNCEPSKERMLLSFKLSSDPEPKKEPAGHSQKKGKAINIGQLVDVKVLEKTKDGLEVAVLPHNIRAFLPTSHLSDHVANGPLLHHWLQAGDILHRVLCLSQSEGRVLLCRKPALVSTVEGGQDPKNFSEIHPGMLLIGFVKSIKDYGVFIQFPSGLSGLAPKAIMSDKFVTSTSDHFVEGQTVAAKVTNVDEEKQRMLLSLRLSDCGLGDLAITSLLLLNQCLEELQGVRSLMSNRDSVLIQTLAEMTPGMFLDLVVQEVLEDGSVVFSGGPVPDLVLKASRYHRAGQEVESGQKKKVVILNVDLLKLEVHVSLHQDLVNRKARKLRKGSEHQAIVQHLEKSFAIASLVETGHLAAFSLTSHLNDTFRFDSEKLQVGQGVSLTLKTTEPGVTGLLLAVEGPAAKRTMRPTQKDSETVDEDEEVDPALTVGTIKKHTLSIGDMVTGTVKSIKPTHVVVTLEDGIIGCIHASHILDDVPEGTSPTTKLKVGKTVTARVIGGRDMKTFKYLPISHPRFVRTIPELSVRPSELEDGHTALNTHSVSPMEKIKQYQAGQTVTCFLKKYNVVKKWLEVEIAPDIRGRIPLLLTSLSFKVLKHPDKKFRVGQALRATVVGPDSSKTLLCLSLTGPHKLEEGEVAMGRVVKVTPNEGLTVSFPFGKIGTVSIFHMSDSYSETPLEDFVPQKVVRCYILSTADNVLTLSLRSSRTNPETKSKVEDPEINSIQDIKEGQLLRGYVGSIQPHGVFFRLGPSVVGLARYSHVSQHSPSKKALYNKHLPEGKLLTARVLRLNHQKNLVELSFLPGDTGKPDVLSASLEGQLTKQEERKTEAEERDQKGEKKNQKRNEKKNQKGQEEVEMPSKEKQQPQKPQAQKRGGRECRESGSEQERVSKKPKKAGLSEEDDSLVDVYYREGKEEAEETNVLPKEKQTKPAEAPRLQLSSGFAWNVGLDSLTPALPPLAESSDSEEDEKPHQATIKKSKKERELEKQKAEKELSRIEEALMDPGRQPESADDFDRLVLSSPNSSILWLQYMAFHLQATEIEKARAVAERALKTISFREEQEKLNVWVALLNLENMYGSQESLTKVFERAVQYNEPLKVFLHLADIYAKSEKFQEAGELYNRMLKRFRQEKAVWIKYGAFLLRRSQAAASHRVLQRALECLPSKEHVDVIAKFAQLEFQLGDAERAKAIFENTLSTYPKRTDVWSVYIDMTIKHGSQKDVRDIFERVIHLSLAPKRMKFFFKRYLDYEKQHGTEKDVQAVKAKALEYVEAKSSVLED
UniProt P61457: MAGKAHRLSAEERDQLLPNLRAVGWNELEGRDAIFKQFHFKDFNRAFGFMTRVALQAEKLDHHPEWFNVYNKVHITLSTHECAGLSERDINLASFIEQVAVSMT
UniProt O14737: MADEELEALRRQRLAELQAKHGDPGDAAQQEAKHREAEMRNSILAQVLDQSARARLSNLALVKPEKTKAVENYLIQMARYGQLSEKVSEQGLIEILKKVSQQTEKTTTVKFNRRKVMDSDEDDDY
UniProt O75381, whole entry, looked up: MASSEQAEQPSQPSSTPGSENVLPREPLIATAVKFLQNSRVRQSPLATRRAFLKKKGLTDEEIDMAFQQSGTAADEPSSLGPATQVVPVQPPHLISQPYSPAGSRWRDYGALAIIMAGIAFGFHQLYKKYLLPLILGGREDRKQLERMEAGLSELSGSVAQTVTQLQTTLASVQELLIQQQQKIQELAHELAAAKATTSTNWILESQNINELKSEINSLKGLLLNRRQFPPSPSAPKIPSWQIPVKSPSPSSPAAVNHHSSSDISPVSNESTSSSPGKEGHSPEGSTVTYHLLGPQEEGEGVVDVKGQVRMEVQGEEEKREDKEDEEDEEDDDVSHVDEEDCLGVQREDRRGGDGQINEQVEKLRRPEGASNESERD
UniProt Q8WUM4: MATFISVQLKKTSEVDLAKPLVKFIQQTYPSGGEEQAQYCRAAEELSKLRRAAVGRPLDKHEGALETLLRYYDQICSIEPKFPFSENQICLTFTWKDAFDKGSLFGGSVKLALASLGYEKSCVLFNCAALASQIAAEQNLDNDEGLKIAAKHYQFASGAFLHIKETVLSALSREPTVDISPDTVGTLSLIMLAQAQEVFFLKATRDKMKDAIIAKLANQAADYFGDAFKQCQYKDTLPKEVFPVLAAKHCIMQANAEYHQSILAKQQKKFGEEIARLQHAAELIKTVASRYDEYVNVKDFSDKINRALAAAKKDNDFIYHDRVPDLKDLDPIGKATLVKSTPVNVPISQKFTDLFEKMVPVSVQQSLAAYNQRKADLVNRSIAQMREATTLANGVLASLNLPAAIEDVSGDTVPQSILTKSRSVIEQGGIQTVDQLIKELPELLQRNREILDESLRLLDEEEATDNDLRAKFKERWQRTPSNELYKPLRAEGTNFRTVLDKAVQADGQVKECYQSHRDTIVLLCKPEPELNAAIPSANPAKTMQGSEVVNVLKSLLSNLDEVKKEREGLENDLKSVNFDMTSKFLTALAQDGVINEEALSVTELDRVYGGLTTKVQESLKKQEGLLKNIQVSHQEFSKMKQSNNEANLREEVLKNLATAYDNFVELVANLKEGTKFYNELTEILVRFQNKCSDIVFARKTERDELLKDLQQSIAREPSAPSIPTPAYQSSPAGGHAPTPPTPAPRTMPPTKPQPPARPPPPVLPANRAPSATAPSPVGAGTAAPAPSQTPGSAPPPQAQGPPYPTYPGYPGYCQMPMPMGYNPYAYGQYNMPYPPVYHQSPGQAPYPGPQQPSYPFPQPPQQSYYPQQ
UniProt P12004, whole entry, looked up: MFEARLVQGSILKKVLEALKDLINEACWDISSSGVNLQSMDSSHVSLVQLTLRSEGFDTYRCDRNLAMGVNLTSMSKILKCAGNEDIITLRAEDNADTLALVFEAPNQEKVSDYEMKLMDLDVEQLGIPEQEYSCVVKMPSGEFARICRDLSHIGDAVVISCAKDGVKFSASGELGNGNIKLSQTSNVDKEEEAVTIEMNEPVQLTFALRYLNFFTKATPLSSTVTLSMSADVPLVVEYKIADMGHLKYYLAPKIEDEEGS
UniProt P08559, whole entry, looked up: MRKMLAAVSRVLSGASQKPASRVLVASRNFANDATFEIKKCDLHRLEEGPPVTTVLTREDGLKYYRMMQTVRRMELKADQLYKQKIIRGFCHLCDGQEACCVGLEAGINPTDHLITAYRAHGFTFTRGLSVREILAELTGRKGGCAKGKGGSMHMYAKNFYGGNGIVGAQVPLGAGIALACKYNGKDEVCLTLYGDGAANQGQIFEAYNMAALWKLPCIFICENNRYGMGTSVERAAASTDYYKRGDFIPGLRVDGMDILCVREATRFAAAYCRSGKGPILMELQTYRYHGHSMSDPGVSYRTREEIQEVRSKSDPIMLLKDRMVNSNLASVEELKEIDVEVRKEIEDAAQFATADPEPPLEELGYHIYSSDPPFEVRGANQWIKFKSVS
UniProt Q9HBI1: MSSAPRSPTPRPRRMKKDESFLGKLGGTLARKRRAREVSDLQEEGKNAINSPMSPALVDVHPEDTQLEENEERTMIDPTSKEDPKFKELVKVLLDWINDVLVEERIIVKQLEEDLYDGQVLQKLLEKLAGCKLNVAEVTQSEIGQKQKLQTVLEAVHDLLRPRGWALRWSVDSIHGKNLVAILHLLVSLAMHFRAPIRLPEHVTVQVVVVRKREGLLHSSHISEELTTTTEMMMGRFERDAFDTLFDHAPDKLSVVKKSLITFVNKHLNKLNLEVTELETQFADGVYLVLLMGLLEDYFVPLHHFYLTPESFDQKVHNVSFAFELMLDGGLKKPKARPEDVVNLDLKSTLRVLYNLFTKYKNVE
UniProt Q9H2J4: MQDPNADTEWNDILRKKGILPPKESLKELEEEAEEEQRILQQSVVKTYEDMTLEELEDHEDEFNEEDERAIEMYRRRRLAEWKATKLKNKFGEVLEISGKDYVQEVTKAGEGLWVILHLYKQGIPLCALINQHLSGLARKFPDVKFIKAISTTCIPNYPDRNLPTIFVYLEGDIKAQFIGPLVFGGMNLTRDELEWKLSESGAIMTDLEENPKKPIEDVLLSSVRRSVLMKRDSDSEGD
UniProt P18669: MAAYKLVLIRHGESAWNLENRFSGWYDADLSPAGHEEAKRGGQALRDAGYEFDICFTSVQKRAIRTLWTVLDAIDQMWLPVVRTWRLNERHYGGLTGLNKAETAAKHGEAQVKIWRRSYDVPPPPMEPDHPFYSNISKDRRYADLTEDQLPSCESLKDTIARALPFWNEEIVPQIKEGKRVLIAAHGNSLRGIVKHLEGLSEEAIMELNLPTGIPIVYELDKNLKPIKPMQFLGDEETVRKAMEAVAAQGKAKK
UniProt P05165: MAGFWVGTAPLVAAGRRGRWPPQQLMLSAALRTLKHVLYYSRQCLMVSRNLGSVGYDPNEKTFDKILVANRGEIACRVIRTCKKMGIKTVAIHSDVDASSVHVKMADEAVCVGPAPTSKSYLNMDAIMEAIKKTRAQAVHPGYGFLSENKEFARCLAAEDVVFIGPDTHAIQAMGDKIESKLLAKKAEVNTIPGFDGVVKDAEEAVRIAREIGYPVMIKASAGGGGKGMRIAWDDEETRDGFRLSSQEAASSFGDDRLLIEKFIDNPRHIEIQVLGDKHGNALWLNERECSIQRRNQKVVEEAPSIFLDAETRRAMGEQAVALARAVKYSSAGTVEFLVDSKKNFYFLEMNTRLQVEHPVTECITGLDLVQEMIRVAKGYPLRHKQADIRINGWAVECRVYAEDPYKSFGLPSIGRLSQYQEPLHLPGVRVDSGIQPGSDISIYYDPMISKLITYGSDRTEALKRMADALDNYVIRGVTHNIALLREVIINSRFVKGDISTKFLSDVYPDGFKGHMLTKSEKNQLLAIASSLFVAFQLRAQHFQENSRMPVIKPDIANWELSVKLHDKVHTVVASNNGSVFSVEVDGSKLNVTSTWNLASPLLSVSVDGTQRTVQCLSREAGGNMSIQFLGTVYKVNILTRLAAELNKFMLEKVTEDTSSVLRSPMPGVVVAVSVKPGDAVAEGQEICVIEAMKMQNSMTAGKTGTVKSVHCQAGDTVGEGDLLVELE

[2] = compound: CC1=C(SC2=C1C(=N[C@H](C3=NN=C(N32)C)CC(=O)N)C4=CC=C(C=C4)Cl)C
How it was run: as §1

[3] = compound: CC1=C2C(=CC=C1)N=C(N(C2=O)C3=CC=CC=C3C)CN4C=NC5=C(N=CN=C54)N
How it was run: as §1

[4] = compound: Cc1sc2c(c1C)C(c1ccc(Cl)cc1)=N[C@@H](CC(=O)OC(C)(C)C)c1nnc(C)n1-2
How it was run: as §1

[5] = compound: c1ccc([C@@H]2C[C@H]2NC2CCNCC2)cc1
How it was run: as §1

Measured: log2 fold change

PDLIM5 (UniProt Q96HC4)
inactive: [1] 0.044 | [2] 0 | [3] -0.038 | [4] -0.003 | [5] -0.124

PDIA3 (UniProt H7BZJ3)
inactive: [1] 0.131 | [2] 0.078 | [3] 0.058 | [4] -0.009 | [5] -0.032

PCID2 (UniProt Q5JVF3)
inactive: [1] 0.013 | [2] -0.021 | [3] 0.039 | [4] 0.008 | [5] 0.036

PARP16 isoform 3 (UniProt Q8N5Y8)
inactive: [1] -0.036 | [2] 0.071 | [3] -0.038 | [4] 0.059 | [5] -0.048

PDE2A (UniProt O00408)
inactive: [1] 0.012 | [2] 0.067 | [3] 0.163 | [4] 0.039 | [5] 0

PDAP1 (UniProt Q13442)
inactive: [1] 0.004 | [2] 0.042 | [3] 0.008 | [4] 0.084 | [5] -0.112

PDCD4 (UniProt Q53EL6)
inactive: [1] -0.026 | [2] 0.005 | [3] -0.007 | [4] 0.002 | [5] 0.001

PEPD (UniProt P12955)
inactive: [1] 0.027 | [2] -0.004 | [3] 0.02 | [4] 0 | [5] -0.017

PBK (UniProt Q96KB5)
inactive: [1] -0.002 | [2] 0.006 | [3] 0.006 | [4] 0.023 | [5] 0.029

PDSS1 (UniProt Q5T2R2)
inactive: [1] -0.082 | [2] 0.054 | [3] 0.21 | [4] -0.13 | [5] -0.013

PATL1 (UniProt Q86TB9)
inactive: [1] -0.025 | [2] 0.048 | [3] -0.018 | [4] 0.031 | [5] 0.043

PFKL isoform 2 (UniProt P17858)
inactive: [1] -0.026 | [2] 0.013 | [3] 0.099 | [4] -0.014 | [5] -0.005

PFKP (UniProt Q01813)
inactive: [1] -0.005 | [2] 0.02 | [3] 0.043 | [4] -0.031 | [5] 0.027

PDIA5 (UniProt Q14554)
inactive: [1] 0.011 | [2] 0 | [3] -0.012 | [4] -0.018 | [5] 0

PGAM5 (UniProt Q96HS1)
inactive: [1] 0.023 | [2] 0.021 | [3] 0.035 | [4] -0.022 | [5] -0.022

PCNT (UniProt O95613)
inactive: [1] 0.035 | [2] -0.016 | [3] 0.011 | [4] -0.035 | [5] -0.09

PDCD11 (UniProt Q14690)
inactive: [1] -0.041 | [2] 0.059 | [3] -0.114 | [4] -0.056 | [5] 0.037

PCBP2 isoform 8 (UniProt Q15366)
inactive: [1] 0.098 | [2] 0.065 | [3] -0.038 | [4] -0.044 | [5] -0.101

PFDN1 (UniProt O60925)
inactive: [1] 0.019 | [2] -0.012 | [3] -0.035 | [4] 0.012 | [5] 0.132

PFKFB3 isoform 4 (UniProt Q16875)
inactive: [1] -0.04 | [2] 0.047 | [3] 0.057 | [4] 0.018 | [5] 0.041

PARN (UniProt O95453)
inactive: [1] -0.04 | [2] 0.002 | [3] -0.003 | [4] -0.012 | [5] 0.01

PDRG1 (UniProt Q9NUG6)
inactive: [1] 0.035 | [2] -0.048 | [3] -0.101 | [4] 0.012 | [5] -0.097

PCBP1 (UniProt Q15365)
inactive: [1] -0.003 | [2] -0.012 | [3] -0.03 | [4] 0.014 | [5] -0.03

PCBD1 (UniProt P61457)
inactive: [1] -0.007 | [2] 0.011 | [3] -0.03 | [4] -0.034 | [5] -0.065

PDCD5 (UniProt O14737)
inactive: [1] -0.009 | [2] -0.021 | [3] -0.012 | [4] 0.019 | [5] -0.099

PEX14 (UniProt O75381)
inactive: [1] 0.055 | [2] 0.013 | [3] -0.043 | [4] -0.014 | [5] 0.01

PBDC1 (UniProt Q9BVG4)
inactive: [1] 0.025 | [2] -0.008 | [3] -0.019 | [4] -0.019 | [5] 0.026

PDCD6IP (UniProt Q8WUM4)
inactive: [1] -0.077 | [2] 0.086 | [3] 0.037 | [4] 0.043 | [5] 0.085

2 neighbouring entries out of the list so far, for reference:
PEX14 (UniProt O75381)
inactive: [1] 0.055 | [2] 0.013 | [3] -0.043 | [4] -0.014 | [5] 0.01

PBDC1 (UniProt Q9BVG4)
inactive: [1] 0.025 | [2] -0.008 | [3] -0.019 | [4] -0.019 | [5] 0.026

Continuation.

PCNA (UniProt P12004)
inactive: [1] 0.005 | [2] 0.005 | [3] 0.017 | [4] 0.033 | [5] -0.038

PGD (UniProt P52209)
inactive: [1] -0.005 | [2] 0.009 | [3] 0.019 | [4] -0.005 | [5] 0.05

PDHX (UniProt O00330)
inactive: [1] 0.014 | [2] 0.001 | [3] 0.005 | [4] 0.013 | [5] 0.053

PDHA1 isoform 4 (UniProt P08559)
inactive: [1] -0.014 | [2] 0.014 | [3] 0.01 | [4] 0.035 | [5] 0.053

PARVB (UniProt Q9HBI1)
inactive: [1] -0.039 | [2] 0.037 | [3] -0.04 | [4] 0.009 | [5] 0.05

PDHB (UniProt P11177)
inactive: [1] 0 | [2] 0.024 | [3] -0.011 | [4] 0.026 | [5] 0.063

PCBD2 (UniProt Q9H0N5)
inactive: [1] -0.019 | [2] 0.048 | [3] 0.002 | [4] -0.011 | [5] -0.172

PCK2 (UniProt Q16822)
inactive: [1] 0.017 | [2] 0 | [3] -0.003 | [4] -0.009 | [5] 0.044

PASK (UniProt Q96RG2)
inactive: [1] -0.002 | [2] -0.031 | [3] -0.031 | [4] -0.038 | [5] 0.01

PFKFB1 (UniProt P16118)
inactive: [1] -0.001 | [2] 0.036 | [3] 0.137 | [4] -0.054 | [5] 0.096

PDCL3 (UniProt Q9H2J4)
inactive: [1] 0.036 | [2] -0.001 | [3] 0.046 | [4] -0.041 | [5] 0.009

PGAM1 (UniProt P18669)
inactive: [1] 0.015 | [2] -0.026 | [3] -0.03 | [4] -0.029 | [5] 0.014

PEF1 (UniProt Q9UBV8)
inactive: [1] 0.016 | [2] -0.039 | [3] 0.055 | [4] 0.048 | [5] -0.031

PDLIM4 (UniProt P50479)
inactive: [1] 0.002 | [2] 0.055 | [3] -0.028 | [4] 0.031 | [5] -0.012

PEX13 (UniProt Q92968)
inactive: [1] -0.137 | [2] -0.013 | [3] 0.051 | [4] 0.037 | [5] 0.001

PDXP (UniProt Q96GD0)
inactive: [1] -0.002 | [2] 0.03 | [3] -0.019 | [4] 0.009 | [5] -0.027

PDSS2 (UniProt Q86YH6)
inactive: [1] 0.028 | [2] 0.033 | [3] 0.041 | [4] 0.01 | [5] 0.033

Quoted at random: 2 records from the list, in no set order.
PDXP (UniProt Q96GD0)
inactive: [1] -0.002 | [2] 0.03 | [3] -0.019 | [4] 0.009 | [5] -0.027

PEF1 (UniProt Q9UBV8)
inactive: [1] 0.016 | [2] -0.039 | [3] 0.055 | [4] 0.048 | [5] -0.031

The list continues.

PCMT1 isoform 2 (UniProt P22061)
inactive: [1] -0.005 | [2] -0.054 | [3] 0.003 | [4] 0.091 | [5] 0.045

PCYT1A (UniProt P49585)
inactive: [1] 0.006 | [2] 0.037 | [3] -0.034 | [4] 0.001 | [5] 0.033

PGAM4 (UniProt Q8N0Y7)
inactive: [1] 0.031 | [2] -0.01 | [3] 0 | [4] -0.061 | [5] -0.021

PCCA (UniProt P05165)
inactive: [1] -0.013 | [2] -0.021 | [3] -0.077 | [4] 0.034 | [5] 0.005

PDS5B (UniProt Q9NTI5)
inactive: [1] -0.01 | [2] -0.057 | [3] 0.023 | [4] 0.044 | [5] 0.009

PCYOX1L (UniProt Q8NBM8)
inactive: [1] 0.017 | [2] 0.016 | [3] 0.068 | [4] 0.001 | [5] -0.01

PCBP2 isoform 3 (UniProt Q15366)
inactive: [1] -0.011 | [2] 0.017 | [3] -0.041 | [4] 0.061 | [5] 0.05

PEX5 isoform 4 (UniProt P50542)
inactive: [1] 0.051 | [2] -0.009 | [3] -0.038 | [4] -0.019 | [5] 0.076

— the supplement of paper PMC10849652
